Measurements: patent US7977477B2, “Benzimidazole derivatives and their use as protein kinase inhibitors” (Astex Therapeutics, Limited, priority 2003, dated 2011)
Some of these results come from one statement about several compounds together.

Target: T1, CDK2/CyclinA (Homo sapiens, UniProt P24941)
T1 construct: purchased Upstate Biotechnology
Assay: CDK2 kinase inhibitory activity (Example 306, Protocol A or B)
Type: biochemical
Details: alternative criterion: at least 50% inhibition at 10 μM
Protocol: Compounds of the invention were tested for kinase inhibitory activity using either Protocol A or Protocol B.
1.7 μl of active CDK2/CyclinA (Upstate Biotechnology, 10 U/μl) is diluted in assay buffer (250 μl of 10× strength assay buffer (200 mM MOPS pH 7.2, 250 mM β-glycerophosphate, 50 mM EDTA, 150 mM MgCl2), 11.27 μl 10 mM ATP, 2.5 μl 1M DTT, 25 μl 100 mM sodium orthovanadate, 708.53 μl H2O), and 10 μl mixed with 10 μl of histone substrate mix (60 μl bovine histone H1 (Upstate Biotechnology, 5 mg/ml), 940 μl H2O, 35 μCi γ^33P-ATP) and added to 96 well plates along with 5 μl of various dilutions of the test compound in DMSO (up to 2.5%). The reaction is allowed to proceed for 5 hours before being stopped with an excess of ortho-phosphoric acid (30 μl at 2%).
(§1) γ^33P-ATP which remains unincorporated into the histone H1 is separated from phosphorylated histone H1 on a Millipore MAPH filter plate. The wells of the MAPH plate are wetted with 0.5% orthophosphoric acid, and then the results of the reaction are filtered with a Millipore vacuum filtration unit through the wells. Following filtration, the residue is washed twice with 200 μl of 0.5% orthophosphoric acid. Once the filters have dried, 25 μl of Microscint 20 scintillant is added, and then counted on a Packard Topcount for 30 seconds.
The % inhibition of the CDK2 activity is calculated and plotted in order to determine the concentration of test compound required to inhibit 50% of the CDK2 activity (IC50).
Activated CDK2/CyclinA (Brown et al, Nat. Cell Biol., 1, pp 438-443, 1999; Lowe, E. D., et al Biochemistry, 41, pp 15625-15634, 2002) is diluted to 125 pM in 2.5× strength assay buffer (50 mM MOPS pH 7.2, 62.5 mM O-glycerophosphate, 12.5 mM EDTA, 37.5 mM MgCl2, […], 2.5 mM DTT, 2.5 mM sodium orthovanadate, 0.25 mg/ml bovine serum albumin), and 10 fi mixed with 10 A1 of histone substrate mix (60 μl bovine histone H1 (Upstate Biotechnology, 5 mg/ml), 940 μl H2O, 35 μCi γ^33P-ATP) and added to 96 well plates along with 5 μl of various dilutions of the test compound in DMSO (up to 2.5%). The reaction is allowed to proceed for 2 to 4 hours before being stopped with an excess of ortho-phosphoric acid (5 μl at 2%).
as §1, with “20” for “25”

| SMILES | IC50 |
| --- | --- |
| O=C(O)c1ccc2[nH]c(-c3n[nH]cc3NC(=O)c3c(F)cccc3F)nc2c1 [Example 17, 2-[4-(2,6-Difluoro-benzoylamino)-1H-pyrazol-3-yl]-1H-benzimidazole-5-carboxylic Acid] | < 20 µM |
| O=C(Nc1c[nH]nc1-c1nc2ccccc2[nH]1)C(F)(F)F [Example 5, N-[3-(1H-Benzimidazol-2-yl)-1H-pyrazol-4-yl]-2,2,2-trifluoro-acetamide] | < 20 µM |
| O=C(Nc1c[nH]nc1-c1nc2cc(CN3CCOCC3)ccc2[nH]1)c1c(F)cccc1Cl [Example 95, 2-Chloro-6-fluoro-N-[3-(5-morpholin-4-ylmethyl-1H-benzimidazol-2-yl)-1H-pyrazol-4-yl]-benzamide] | < 20 µM |
| O=C(Nc1c[nH]nc1-c1nc2cc(C(=O)N3CCOCC3)ccc2[nH]1)c1c(F)cccc1F [Example 68] | < 20 µM |
| O=C(Nc1c[nH]nc1-c1nc2c(C(=O)O)cccc2[nH]1)c1c(F)cccc1F [Example 30] | < 20 µM |
| O=C(Nc1c[nH]nc1-c1nc2ccccc2[nH]1)c1cc(-c2ccccc2)cs1 [Example 123] | < 20 µM |
| O=C(Nc1c[nH]nc1-c1nc2cc(O)ccc2[nH]1)c1c(F)cccc1F [Example 91, 2,6-Difluoro-N-[3-(5-hydroxy-1H-benzimidazol-2-yl)-1H-pyrazol-4-yl]-benzamide] | < 20 µM |
| COc1cc(F)c(C(=O)Nc2c[nH]nc2-c2nc3cc(C(=O)N4CCOCC4)ccc3[nH]2)c(F)c1 [Example 100, 2,6-Difluoro-4-methoxy-N-{3-[5-(morpholine-4-carbonyl)-1H-benzimidazol-2-yl]-1H-pyrazol-4-yl}-benzamide] | < 20 µM |
| O=C(Cc1c[nH]c2ccccc12)Nc1c[nH]nc1-c1nc2ccccc2[nH]1 [Example 40] | < 20 µM |
| O=C(Nc1c[nH]nc1-c1nc2cc3c(cc2[nH]1)OCCO3)c1c(F)cccc1F [Example 86] | < 20 µM |
| O=C(Nc1c[nH]nc1-c1nc2cc(CN3CCOCC3)ccc2[nH]1)c1cccc2c1OCCO2 [Example 97, 2,3-Dihydro-benzo[1,4]dioxine-5-carboxylic acid [3-(5-morpholin-4-ylmethyl-1H-benzimidazol-2-yl)-1H-pyrazol-4-yl]-amide] | < 20 µM |
| O=C(Nc1c[nH]nc1-c1nc2ccccc2[nH]1)c1cccc2[nH]ccc12 [Example 35] | < 20 µM |
| CC(C)(C)NC(=O)Nc1c[nH]nc1-c1nc2ccccc2[nH]1 [Example 87, 1-[3-(1H-Benzimidazol-2-yl)-1H-pyrazol-4-yl]-3-tert-butyl-urea] | < 20 µM |
| O=C(Nc1c[nH]nc1-c1nc2ccccc2[nH]1)c1ccc(CCCl)cc1 [Example 52] | < 20 µM |
| O=C(Nc1c[nH]nc1-c1nc2c(C(F)(F)F)cc(C(F)(F)F)cc2[nH]1)c1c(F)cccc1F [Example 102, N-[3-(4,6-Bis-trifluoromethyl-1H-benzimidazol-2-yl)-1H-pyrazol-4-yl]-2,6-difluoro-benzamide] | < 20 µM |
| Cc1cc2nc(-c3n[nH]cc3NC(=O)c3c(F)cccc3F)[nH]c2cc1C [Example 73] | < 20 µM |
| O=C(Nc1c[nH]nc1-c1nc2cc([N+](=O)[O-])ccc2[nH]1)c1c(F)cccc1F [Example 28, 2,6-Difluoro-N-[3-(5-nitro-1H-benzimidazol-2-yl)-1H-pyrazol-4-yl]-benzamide] | < 20 µM |
| O=C(Nc1c[nH]nc1-c1nc2cc(F)c(Cl)cc2[nH]1)c1c(F)cccc1F [Example 80] | < 20 µM |
| Cc1noc(C)c1C(=O)Nc1c[nH]nc1-c1nc2ccccc2[nH]1 [Example 118] | < 20 µM |
| c1ccc(Nc2c[nH]nc2-c2nc3ccccc3[nH]2)nc1 [Example 127, [3-(1H-Benzimidazol-2-yl)-1H-pyrazol-4-yl]-pyridin-2-yl-amine] | < 20 µM |
| CN1CCN(Cc2cccc3[nH]c(-c4n[nH]cc4NC(=O)c4c(F)cccc4F)nc23)CC1 [Example 13, 2,6-Difluoro-N-[3-(N-methyl-piperazinyl-4-ylmethyl-1H-benzimidazol-2-yl)-1H-pyrazol-4-yl]-benzamide] | < 20 µM |
| CN1CCN(C(=O)c2ccc3[nH]c(-c4n[nH]cc4NC(=O)c4c(F)cccc4F)nc3c2)CC1 [Example 21, 2,6-Difluoro-N-{3-[5-(4-methyl-piperazine-1-carbonyl)-1H-benzimidazol-2-yl]-1H-pyrazol-4-yl}-benzamide] | < 20 µM |
| O=C(Nc1c[nH]nc1-c1nc2ccccc2[nH]1)Nc1c(F)cccc1F [Example 88, 1-[3-(1H-Benzimidazol-2-yl)-1H-pyrazol-4-yl]-3-(2,6-difluoro-phenyl)-urea] | < 20 µM |
| O=C(Cc1ccccc1)Nc1c[nH]nc1-c1nc2ccccc2[nH]1 [Example 8, N-[3-(1H-Benzimidazol-2-yl)-1H-pyrazol-4-yl]-2-phenyl-acetamide] | < 20 µM |
| NC(=O)c1ccc2[nH]c(-c3n[nH]cc3NC(=O)c3c(F)cccc3F)nc2c1 [Example 18, 2-[4-(2,6-Difluoro-benzoylamino)-1H-pyrazol-3-yl]-1H-benzimidazole-5-carboxylic Acid amide] | < 20 µM |
| Cc1ccc2[nH]c(-c3n[nH]cc3NC(=O)c3c(F)cccc3F)nc2c1 [Example 84] | < 20 µM |
| Cc1nc(C)c(C(=O)Nc2c[nH]nc2-c2nc3ccccc3[nH]2)s1 [Example 117] | < 20 µM |
